Laboratory results reported in paper PMC13572447.
No constants are given. Whether binding was seen depends on the method and setting. For some of these results: Binding seen in cells or lysates may run through a third protein. For some of these results: Tags and fused reporters may be left off the sequences shown. Some binding calls cover weakened binding; strength is not graded here. One block for each binder: values may come before it.

The chains behind the UniProt entries cited, without tags or fusion partners. Where a name states a change or a piece, a line headed by the entry shows the natural chain unless it says otherwise.
UniProt P45974: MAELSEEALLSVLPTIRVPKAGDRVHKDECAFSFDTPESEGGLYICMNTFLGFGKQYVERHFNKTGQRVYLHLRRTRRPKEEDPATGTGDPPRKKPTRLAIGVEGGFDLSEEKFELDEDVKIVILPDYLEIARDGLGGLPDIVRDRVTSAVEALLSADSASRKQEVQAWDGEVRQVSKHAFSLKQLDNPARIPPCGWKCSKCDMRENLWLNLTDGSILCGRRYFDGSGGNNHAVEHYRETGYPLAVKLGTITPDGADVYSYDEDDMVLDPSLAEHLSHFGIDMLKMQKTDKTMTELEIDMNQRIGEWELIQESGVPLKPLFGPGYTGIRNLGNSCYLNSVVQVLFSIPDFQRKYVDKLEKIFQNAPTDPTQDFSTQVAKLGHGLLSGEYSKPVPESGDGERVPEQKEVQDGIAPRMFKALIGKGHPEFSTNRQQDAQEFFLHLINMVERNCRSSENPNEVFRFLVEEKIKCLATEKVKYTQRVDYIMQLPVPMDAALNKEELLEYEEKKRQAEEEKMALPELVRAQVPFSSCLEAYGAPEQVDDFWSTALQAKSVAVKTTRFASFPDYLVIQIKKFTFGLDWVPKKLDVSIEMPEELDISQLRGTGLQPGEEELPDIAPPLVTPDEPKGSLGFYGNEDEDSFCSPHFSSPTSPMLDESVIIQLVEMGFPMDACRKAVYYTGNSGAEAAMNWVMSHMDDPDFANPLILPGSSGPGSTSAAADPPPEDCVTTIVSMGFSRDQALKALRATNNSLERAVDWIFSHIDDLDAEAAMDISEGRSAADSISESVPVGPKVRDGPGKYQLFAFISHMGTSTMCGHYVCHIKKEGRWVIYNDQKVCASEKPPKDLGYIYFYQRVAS
UniProt Q93009: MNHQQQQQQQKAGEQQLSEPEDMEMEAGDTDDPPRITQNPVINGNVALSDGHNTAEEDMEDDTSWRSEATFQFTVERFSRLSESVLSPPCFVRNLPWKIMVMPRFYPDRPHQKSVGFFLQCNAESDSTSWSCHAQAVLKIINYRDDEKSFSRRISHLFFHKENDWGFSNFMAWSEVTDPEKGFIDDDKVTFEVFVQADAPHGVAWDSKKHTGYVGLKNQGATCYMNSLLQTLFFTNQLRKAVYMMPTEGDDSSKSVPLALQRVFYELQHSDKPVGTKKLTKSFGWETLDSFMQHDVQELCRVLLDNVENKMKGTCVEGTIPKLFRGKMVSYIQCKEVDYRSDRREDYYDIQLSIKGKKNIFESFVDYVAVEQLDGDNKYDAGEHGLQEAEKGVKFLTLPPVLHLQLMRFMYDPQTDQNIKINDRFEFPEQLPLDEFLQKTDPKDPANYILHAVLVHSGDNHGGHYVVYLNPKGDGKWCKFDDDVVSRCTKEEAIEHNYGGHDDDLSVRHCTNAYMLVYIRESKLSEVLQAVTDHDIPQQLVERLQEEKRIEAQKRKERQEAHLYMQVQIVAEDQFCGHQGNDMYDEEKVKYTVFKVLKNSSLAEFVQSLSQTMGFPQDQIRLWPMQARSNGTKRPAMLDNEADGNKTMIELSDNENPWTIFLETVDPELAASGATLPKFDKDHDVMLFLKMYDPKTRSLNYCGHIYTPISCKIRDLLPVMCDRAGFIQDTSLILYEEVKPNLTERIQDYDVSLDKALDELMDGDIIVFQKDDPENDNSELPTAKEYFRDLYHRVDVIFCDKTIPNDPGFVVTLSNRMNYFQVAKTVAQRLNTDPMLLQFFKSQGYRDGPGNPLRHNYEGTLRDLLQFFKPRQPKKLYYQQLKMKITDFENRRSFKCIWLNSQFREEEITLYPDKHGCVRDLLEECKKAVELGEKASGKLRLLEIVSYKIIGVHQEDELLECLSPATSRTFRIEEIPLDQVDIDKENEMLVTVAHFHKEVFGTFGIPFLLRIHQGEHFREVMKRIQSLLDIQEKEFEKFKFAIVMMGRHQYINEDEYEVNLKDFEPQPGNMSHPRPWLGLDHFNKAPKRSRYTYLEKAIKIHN

Experiments:
[1] = target: catalytically inactive USP5 C335A, recombinant (human) (UniProt P45974); assay: ITC; SDE2 construct or Ub titrated into USP5 construct; ITC200, 298 K; 50 mM HEPES, 100 mM NaCl, 1 mM TCEP, pH 7.5; duplicate experiments; both purified
[2] = target: catalytically inactive USP5 C335A, recombinant (human) (UniProt P45974); assay: FRET or BRET; TR-FRET: Cy5 labelled SDE2 or Ub constructs titrated into His-tagged USP5 with Eu labelled anti-His6 antibody (2 nM); 20 mM HEPES, 150 mM NaCl, 1 mM TCEP, 0.5% DMSO, 0.05% Tween-20, pH 7.5; 1 h at room temperature; both purified
[3] = target: T1, USP13 (318-862), recombinant truncated USP13 (UniProt Q92995); assay: activity-based probe labelling (covalent adduct on SDS-PAGE); purified DUB 1 µM with probe 2 µM in 50 mM Tris pH 7.5, 1 mM DTT, 37 °C; quenched with LDS/DTT; shows only the covalent probe-enzyme adduct as a band shift; both purified
T1 sequence: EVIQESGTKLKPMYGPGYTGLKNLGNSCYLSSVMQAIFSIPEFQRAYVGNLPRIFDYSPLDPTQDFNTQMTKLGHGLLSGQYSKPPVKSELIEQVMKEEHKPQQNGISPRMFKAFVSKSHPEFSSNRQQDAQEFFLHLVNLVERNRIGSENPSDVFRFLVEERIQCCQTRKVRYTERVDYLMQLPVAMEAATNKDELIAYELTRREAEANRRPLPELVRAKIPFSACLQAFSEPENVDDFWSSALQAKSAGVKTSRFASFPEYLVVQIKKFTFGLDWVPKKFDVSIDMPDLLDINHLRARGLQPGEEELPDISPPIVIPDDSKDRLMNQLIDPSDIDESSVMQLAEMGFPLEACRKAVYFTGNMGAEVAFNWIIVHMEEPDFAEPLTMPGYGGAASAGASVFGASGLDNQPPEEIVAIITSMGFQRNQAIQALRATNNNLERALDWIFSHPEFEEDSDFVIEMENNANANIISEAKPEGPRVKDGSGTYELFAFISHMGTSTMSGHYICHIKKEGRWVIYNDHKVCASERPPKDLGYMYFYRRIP

[4] = target: USP7, recombinant (human) (UniProt Q93009); assay: as above
[5] = target: USP5 H232A, recombinant (human) (UniProt P45974); assay: ITC; SDE2 construct or Ub titrated into USP5 construct; ITC200, 298 K; 50 mM HEPES, 100 mM NaCl, 1 mM TCEP, pH 7.5; duplicate experiments; both purified
[6] = target: T2, HA-SDE2UBL-PA activity-based probe (human) (UniProt Q6IQ49); assay: co-IP; HEK293 lysate (500 µg) with 1 µM HA-SDE2UBL-PA, 45 min at 37 °C, quenched with 0.4% SDS and 0.5% NP-40, anti-HA magnetic beads, immunoblot for USP5, USP13 and HA; covalent adducts; only the target purified
T2 sequence (chain, C-terminal propargylamide, Gly77 replaced with a propargyl electrophilic warhead): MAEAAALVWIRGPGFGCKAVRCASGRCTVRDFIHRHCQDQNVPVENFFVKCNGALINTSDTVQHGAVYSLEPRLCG

B2: Cy5 labelled SDE2CT (domain or fragment, UniProt Q6IQ49-1 78-451)
chain: KGGFGSMLRALGAQIEKTTNREACRDLSGRRLRDVNHEKAMAEWVKQQAEREAEKEQKRLERLQRKLVEPKHCFTSPDYQQQCHEMAERLEDSVLKGMQAASSKMVSAEISENRKRQWPTKSQTDRGASAGKRRCFWLGMEGLETAEGSNSESSDDDSEEAPSTSGMGFHAPKIGSNGVEMAAKFPSGSQRARVVNTDHGSPEQLQIPVTDSGRHILEDSCAELGESKEHMESRMVTETEETQEKKAESKEPIEEEPTGAGLNKDKETEERTDGERVAEVAPEERENVAVAKLQESQPGNAVIDKETIDLLAFTSVAELELLGLEKLKCELMALGLKCGGTLQERAARLFSVRGLAKEQIDPALFAKPLKGKKK
modifications: Cy5 label, site not stated
binding [2]: no binding

B4: Cy5 labelled SDE2UBL (domain or fragment, UniProt Q6IQ49-1 1-77)
chain: MAEAAALVWIRGPGFGCKAVRCASGRCTVRDFIHRHCQDQNVPVENFFVKCNGALINTSDTVQHGAVYSLEPRLCGG
modifications: Cy5 label, site not stated
binding [2]: binds

B6: endogenous USP13 of HEK293 cell lysate (enzyme, UniProt Q92995 1-863)
chain: MQRRGALFGMPGGSGGRKMAAGDIGELLVPHMPTIRVPRSGDRVYKNECAFSYDSPNSEGGLYVCMNTFLAFGREHVERHFRKTGQSVYMHLKRHVREKVRGASGGALPKRRNSKIFLDLDTDDDLNSDDYEYEDEAKLVIFPDHYEIALPNIEELPALVTIACDAVLSSKSPYRKQDPDTWENELPVSKYANNLTQLDNGVRIPPSGWKCARCDLRENLWLNLTDGSVLCGKWFFDSSGGNGHALEHYRDMGYPLAVKLGTITPDGADVYSFQEEEPVLDPHLAKHLAHFGIDMLHMHGTENGLQDNDIKLRVSEWEVIQESGTKLKPMYGPGYTGLKNLGNSCYLSSVMQAIFSIPEFQRAYVGNLPRIFDYSPLDPTQDFNTQMTKLGHGLLSGQYSKPPVKSELIEQVMKEEHKPQQNGISPRMFKAFVSKSHPEFSSNRQQDAQEFFLHLVNLVERNRIGSENPSDVFRFLVEERIQCCQTRKVRYTERVDYLMQLPVAMEAATNKDELIAYELTRREAEANRRPLPELVRAKIPFSACLQAFSEPENVDDFWSSALQAKSAGVKTSRFASFPEYLVVQIKKFTFGLDWVPKKFDVSIDMPDLLDINHLRARGLQPGEEELPDISPPIVIPDDSKDRLMNQLIDPSDIDESSVMQLAEMGFPLEACRKAVYFTGNMGAEVAFNWIIVHMEEPDFAEPLTMPGYGGAASAGASVFGASGLDNQPPEEIVAIITSMGFQRNQAIQALRATNNNLERALDWIFSHPEFEEDSDFVIEMENNANANIISEAKPEGPRVKDGSGTYELFAFISHMGTSTMSGHYICHIKKEGRWVIYNDHKVCASERPPKDLGYMYFYRRIPS
binding [6]: no binding (tested: probe 1 µM)

More lines, main results first:

binding [1]: no binding
B1: SDE2 C-terminal domain, SDE2CT(78-451) (domain or fragment, UniProt Q6IQ49-1 78-451)
chain: B2 chain

binding [4]: no binding
B3: HA-SDE2UBL-PA activity-based probe (domain or fragment, UniProt Q6IQ49-1 1-76)
chain: T2 sequence (chain, C-terminal propargylamide, Gly77 replaced with a propargyl electrophilic warhead)
modifications: C-terminal propargylamide: Gly77 replaced with a propargyl electrophilic warhead
binding [3]: no binding (tested: probe 2 µM, DUB 1 µM)

binding [5]: no binding
B5: SDE2 ubiquitin-like domain, SDE2UBL(1-77) (domain or fragment, UniProt Q6IQ49-1 1-77)
chain: B4 chain
